Measured values: US5652100A, “Stably transfected rodent fibroblast cell lines expressing human GABA-A -receptors” (priority 1992, dated 1997)

Biological target: T1, recombinant GABAA receptor (α1 β1 γ2L) expressed by population A cells (Bos taurus, UniProt P08219+P08220+P22300)
T1 construct: expressed in transfected cells; clone 'population A'
T1 sequence (P08219 28-456): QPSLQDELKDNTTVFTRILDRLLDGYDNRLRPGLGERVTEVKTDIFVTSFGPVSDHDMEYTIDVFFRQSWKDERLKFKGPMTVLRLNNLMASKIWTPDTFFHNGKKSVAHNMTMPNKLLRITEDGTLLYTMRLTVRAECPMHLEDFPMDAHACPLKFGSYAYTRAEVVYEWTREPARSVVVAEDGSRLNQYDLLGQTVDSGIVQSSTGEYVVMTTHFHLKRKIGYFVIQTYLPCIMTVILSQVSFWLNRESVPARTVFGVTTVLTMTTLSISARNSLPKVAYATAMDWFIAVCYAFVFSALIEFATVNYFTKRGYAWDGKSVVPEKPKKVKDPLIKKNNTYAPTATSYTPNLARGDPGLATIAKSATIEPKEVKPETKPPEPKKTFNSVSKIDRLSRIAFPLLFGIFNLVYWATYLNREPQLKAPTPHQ
T1 sequence (P08220 26-474): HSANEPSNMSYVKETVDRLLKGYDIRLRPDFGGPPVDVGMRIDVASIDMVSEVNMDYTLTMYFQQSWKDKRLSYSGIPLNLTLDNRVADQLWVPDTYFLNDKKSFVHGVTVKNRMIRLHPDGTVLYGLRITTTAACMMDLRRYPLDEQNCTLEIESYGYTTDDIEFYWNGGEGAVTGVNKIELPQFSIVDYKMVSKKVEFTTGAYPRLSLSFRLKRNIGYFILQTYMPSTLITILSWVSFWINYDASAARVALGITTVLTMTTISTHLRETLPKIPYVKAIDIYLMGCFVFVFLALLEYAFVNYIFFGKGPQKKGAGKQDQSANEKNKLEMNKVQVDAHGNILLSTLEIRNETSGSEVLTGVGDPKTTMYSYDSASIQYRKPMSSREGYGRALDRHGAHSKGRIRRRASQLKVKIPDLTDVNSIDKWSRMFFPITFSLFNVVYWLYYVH
T1 sequence (P22300 40-475): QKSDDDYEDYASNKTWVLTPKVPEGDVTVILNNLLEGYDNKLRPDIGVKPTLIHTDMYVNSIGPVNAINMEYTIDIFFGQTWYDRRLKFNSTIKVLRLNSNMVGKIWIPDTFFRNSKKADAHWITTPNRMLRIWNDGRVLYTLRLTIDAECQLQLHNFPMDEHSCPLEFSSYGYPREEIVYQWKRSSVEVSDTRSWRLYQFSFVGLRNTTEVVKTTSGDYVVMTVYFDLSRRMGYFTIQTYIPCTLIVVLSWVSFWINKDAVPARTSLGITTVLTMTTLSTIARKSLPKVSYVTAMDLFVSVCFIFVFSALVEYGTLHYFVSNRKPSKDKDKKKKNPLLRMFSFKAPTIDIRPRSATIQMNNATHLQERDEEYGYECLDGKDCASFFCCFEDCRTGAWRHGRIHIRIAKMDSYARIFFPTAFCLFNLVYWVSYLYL
Test: cell-based
Set-up: species or system bovine
Conditions: dexamethasone-induced cells, whole cell patch clamp; read-out: log EC50 of GABA concentration response curves (converted)

Compound: NCCCC(=O)O [GABA, Gamma-amino butyric acid]
- EC50: 6.31 µM
